Reference: patent publication US5574059A, “Treating disorders mediated by vascular smooth muscle cell proliferation” (priority 1995, dated 1996)

How the values were obtained:
I2 imidazoline receptors [1] = assay: inhibition of 3H-idazoxan (5 nM) binding to rat aortic smooth muscle cell membranes; conditions: Table 2, pseudo-Hill coefficient
Protocol: Binding to I2 imidazoline receptors is determined by the following assay. Membranes are prepared from cultured cells for ligand binding as described in Regunathan, S., et al, Biochem. Pharmacol. 45, 1667-1675 (1993) and Regunathan, S., et al, J. Neurosci. Res. 34, 681-688 (1993) and the disclosure in these on this is incorporated herein by reference. In particular, harvested rat aortic smooth muscle cells are homogenized in Hepes-sucrose buffer (pH 7.4) with a Teflon-glass homogenizer and centrifuged at 1000 × g for 10 minutes. The pellets are suspended in ice-cold Tris-HCl buffer (pH 7.7) with 5mM ethylene diamine tetracetic acid and homogenized using a Polytron (Brinkman Instruments) for 10 seconds. The homogenate is centrifuged at 40,000 × g for 30 minutes to produce a membrane pellet. The membrane pellet is washed three times by resuspending in buffer and re-centrifuging. The washed pellet is suspended in fresh Tris-HCl buffer (pH 7.4) to provide approximately 100 μg protein per assay tube. Binding assays are performed in Tris-HCl buffer (pH 7.7) using 5 nM of […]. Non-specific binding is defined by 100 μM of unlabelled idazoxan which will inhibit the specific binding of ^3 H-idazoxan. Thus the binding remaining in the presence 100 μM of idazoxan is due to non-specific binding and this will be substracted from total binding to calculate the specific binding. Following incubation at 25° C. for 30 minutes, reaction is terminated by rapid vacuum filtration over Whatman GF/B filters and washed with 10 ml of ice-cold buffer. Filters are suspended in scintillation fluid and radioactivity counted in a liquid scintillation counter. Membrane protein is assayed by Coomassie Blue method (Pierce) using bovine serum albumin as standard.
Determination of inhibition constant (Ki) for each drug is determined as follows: The binding of ^3 H-idazoxan to membranes of vascular smooth muscle cells is determined in the presence of 0.1 nM to 100 μM concentrations of potential drug. The percent inhibition of specific binding of ^3 H-idazoxan by each concentration is calculated and plotted against concentration. The data is analyzed by non-linear curve fitting program, LIGAND and the IC50 value for each potential drug is calculated. The affinity for each drug (Ki) for I2 imidazoline receptors is calculated using the formula Ki =IC50 /1+L/Kd where L is the concentration of ^3 H-idazoxan used for binding and Kd is the dissociation constant for ^3 H-idazoxan for I2 imidazoline receptors. The dissociation constant (Kd) is determined by Scatchard analysis of the saturation binding of ^3 H-idazoxan using the formula [formula] where B and F are the amount of bound and free ligand, respectively, and Bmax is the number of binding sites.
Primary cultures of rat-aortic smooth muscle cells were prepared by a modification (described in Erlinge, Do, et al, Am. J. Physiol. 265, H1089-1097, 1993) of the method of Meyer-Lehnert and Schrier (Meyer-Lehnert, H., et al, Hypertension 13,350-361, 1989), the disclosure of these cited articles being incorporated herein by reference. Briefly, rats were killed by anesthetic overdose and the aorta were removed and incubated with collagenase (2 mg/ml) in Dulbecco's modified Eagle's minimum essential medium (DMEM). The vessel was stripped of adventitia, cut longitudinally and the intima scraped away. After further collagenase treatment, the remaining tissue was passed 20 times through 18 and 16 gauge needles. The resulting cell suspension was centrifuged at 500 × g for 5 minutes and resuspended in DMEM containing penicillin (100 units/ml), streptomycin (100 μg/ml), 2 mM L-glutamine and 10% fetal calf serum. The suspended cells were plated in T-75 flasks, cultured until confluent, and subcultured in 100 mm plates. The confluent cells were harvested and membranes were prepared. Cell viability was determined by trypan blue exclusion.

I2 imidazoline receptors [2] = assay: saturation/specific binding of 3H-idazoxan to smooth muscle cell membranes (Scatchard analysis); set-up: species or system rat
Protocol: Binding to I2 imidazoline receptors is determined by the following assay. Membranes are prepared from cultured cells for ligand binding as described in Regunathan, S., et al, Biochem. Pharmacol. 45, 1667-1675 (1993) and Regunathan, S., et al, J. Neurosci. Res. 34, 681-688 (1993) and the disclosure in these on this is incorporated herein by reference. In particular, harvested rat aortic smooth muscle cells are homogenized in Hepes-sucrose buffer (pH 7.4) with a Teflon-glass homogenizer and centrifuged at 1000 × g for 10 minutes. The pellets are suspended in ice-cold Tris-HCl buffer (pH 7.7) with 5mM ethylene diamine tetracetic acid and homogenized using a Polytron (Brinkman Instruments) for 10 seconds. The homogenate is centrifuged at 40,000 × g for 30 minutes to produce a membrane pellet. The membrane pellet is washed three times by resuspending in buffer and re-centrifuging. […] Filters are suspended in scintillation fluid and radioactivity counted in a liquid scintillation counter. […]
Primary cultures of rat-aortic smooth muscle cells were prepared by a modification (described in Erlinge, Do, et al, Am. J. Physiol. 265, H1089-1097, 1993) of the method of Meyer-Lehnert and Schrier (Meyer-Lehnert, H., et al, Hypertension 13,350-361, 1989), the disclosure of these cited articles being incorporated herein by reference. […] Cell viability was determined by trypan blue exclusion.

SMILES	Hill Coefficient (nH) (I2 imidazoline receptors [1])	Bmax relative to α2-adrenergic sites measured by 3H-rauwolscine (I2 imidazoline receptors [2]; 3H-idazoxan non-adrenergic sites vs 3H-rauwolscine sites)	number of non-adrenergic binding sites (Bmax) (I2 imidazoline receptors [2]; in presence of 10 μM epinephrine) [fmol/mg protein]
c1ccc(CC2=NCCN2)cc1 [Tolazoline]	0.89 ± 0.08		
NCCCCN=C(N)N [Agmatine, 4-(aminobutylguanidine)]	0.63		
c1ccc2c(c1)OCC(C1=NCCN1)O2 (centres unmarked) [Idazoxan, 2-[2-(1,4-benzodioxanyl)]-2-imidazoline]	0.95 ± 0.05		
Cc1ccc(N(CC2=NCCN2)c2cccc(O)c2)cc1 [Phentolamine]	0.75 ± 0.11		
Brc1c(NC2=NCCN2)ccc2nccnc12 [UK 14,304, 5-bromo-N-(4,5-dihydro-1-H-imidazol-2-yl)-6-quinoxalinamine]	0.69 ± 0.04		
c1ccc2c(c1)OCC(C1=NCCN1)O2 (centres unmarked) [^3 H-idazoxan]		about 10 fold	610 ±45
Clc1cccc(Cl)c1N=C1NCCN1 [Clonidine]	0.65 ± 0.05		
